Laboratory results as given in article PMC8260145 (Archives of biochemistry and biophysics, 2021).

Amino acid sequences for entries named in this document (tags omitted).
UniProt P20815, whole entry: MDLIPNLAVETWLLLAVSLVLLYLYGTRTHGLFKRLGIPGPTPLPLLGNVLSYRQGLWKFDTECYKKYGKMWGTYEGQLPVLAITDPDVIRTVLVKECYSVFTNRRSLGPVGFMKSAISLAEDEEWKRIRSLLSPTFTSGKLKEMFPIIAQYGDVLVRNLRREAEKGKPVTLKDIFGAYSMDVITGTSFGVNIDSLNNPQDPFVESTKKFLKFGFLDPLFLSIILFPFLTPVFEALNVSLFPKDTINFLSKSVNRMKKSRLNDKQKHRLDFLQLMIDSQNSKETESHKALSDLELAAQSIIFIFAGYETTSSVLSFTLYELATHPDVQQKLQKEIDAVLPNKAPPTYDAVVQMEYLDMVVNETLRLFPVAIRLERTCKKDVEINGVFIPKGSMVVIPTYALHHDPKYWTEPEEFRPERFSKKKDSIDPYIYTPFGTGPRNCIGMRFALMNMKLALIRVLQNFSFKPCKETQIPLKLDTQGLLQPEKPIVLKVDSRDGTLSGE

Columns and labels:
recombinant human CYP3A5 = recombinant human CYP3A5 (Homo sapiens, UniProt P20815); experiment: Inhibition of C152 metabolism in SS; settings: SS(3A5); 30 μM C152
[1] = tested on: cytochromes P450 of HLM that metabolise C152; experiment: Inhibition of C152 metabolism in human liver microsomes; format: biochemical; settings: human, IC50 (Clotrimazole), 30 μM C152
human liver microsomes = experiment: as above; format: biochemical; settings: 30 μM C152

Clc1ccccc1C(c1ccccc1)(c1ccccc1)n1ccnc1 [Clotrimazole]
Maximal inhibition (Clotrimazole) (recombinant human CYP3A5): 96 ± 4%
IC50 ([1]; human liver microsomes HLM(FVT), probe C152 (30 μM), HLM(FVT)): 49 ± 40 nM
IC50 ([1]; human liver microsomes HLM(IHG), probe C152 (30 μM), HLM(IHG)): 47 ± 6 nM
IC50 ([1]; human liver microsomes HLM(LBA) enriched with CYP2E1, probe C152 (30 μM), HLM(LBA)+CYP2E1): 79 ± 16 nM
IC50 ([1]; human liver microsomes HLM(LBA), probe C152 (30 μM), HLM(LBA)): 239 ± 52 nM
IC50 ([1]; human liver microsomes HLM(LFJ) enriched with CYP2E1, probe C152 (30 μM), HLM(LFJ)+CYP2E1): 55 ± 17 nM
IC50 ([1]; human liver microsomes HLM(LFJ), probe C152 (30 μM), HLM(LFJ)): 286 ± 89 nM
IC50 ([1]; human liver microsomes HLM(NQO), probe C152 (30 μM), HLM(NQO)): 397 ± 76 nM
IC50 ([1]; human liver microsomes HLM(ODN), probe C152 (30 μM), HLM(ODN)): 72 ± 11 nM
Maximal inhibition (Clotrimazole) (human liver microsomes; HLM(FVT)): 70 ± 24%
Maximal inhibition (Clotrimazole) (human liver microsomes; HLM(IHG)): 80 ± 19%
Maximal inhibition (Clotrimazole) (human liver microsomes; HLM(LBA)+CYP2E1): 85 ± 17%
Maximal inhibition (Clotrimazole) (human liver microsomes; HLM(LBA)): 71 ± 2%
Maximal inhibition (Clotrimazole) (human liver microsomes; HLM(LFJ)+CYP2E1): 96 ± 9%
Maximal inhibition (Clotrimazole) (human liver microsomes; HLM(LFJ)): 94 ± 6%
Maximal inhibition (Clotrimazole) (human liver microsomes; HLM(NQO)): 94 ± 13%
Maximal inhibition (Clotrimazole) (human liver microsomes; HLM(ODN)): 79 ± 25%
